Assay results taken from article PMC3689669.
Results are given in words; binding and its absence hold for the method and conditions named.

The chains behind the UniProt entries cited, without tags or fusion partners. Residues count along the entry.
UniProt P02751, residues 1266-1908: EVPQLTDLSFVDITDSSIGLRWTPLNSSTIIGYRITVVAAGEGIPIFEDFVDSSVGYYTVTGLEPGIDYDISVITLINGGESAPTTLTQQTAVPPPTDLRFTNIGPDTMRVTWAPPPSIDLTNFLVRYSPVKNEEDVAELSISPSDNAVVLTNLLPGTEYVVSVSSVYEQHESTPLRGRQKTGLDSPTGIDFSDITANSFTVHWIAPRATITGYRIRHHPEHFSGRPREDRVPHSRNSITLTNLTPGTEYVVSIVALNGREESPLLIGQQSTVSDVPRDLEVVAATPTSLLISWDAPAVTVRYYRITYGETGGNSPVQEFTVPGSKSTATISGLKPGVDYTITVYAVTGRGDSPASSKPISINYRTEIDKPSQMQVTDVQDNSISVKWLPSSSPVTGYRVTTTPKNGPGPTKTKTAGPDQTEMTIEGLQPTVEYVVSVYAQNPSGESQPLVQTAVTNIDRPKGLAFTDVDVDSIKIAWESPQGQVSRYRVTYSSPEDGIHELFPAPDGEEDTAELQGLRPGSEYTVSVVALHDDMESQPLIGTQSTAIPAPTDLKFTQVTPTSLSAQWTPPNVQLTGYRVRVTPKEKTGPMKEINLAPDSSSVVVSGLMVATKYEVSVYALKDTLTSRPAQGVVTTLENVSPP
UniProt A0A0H2XKG3, residues 163-480: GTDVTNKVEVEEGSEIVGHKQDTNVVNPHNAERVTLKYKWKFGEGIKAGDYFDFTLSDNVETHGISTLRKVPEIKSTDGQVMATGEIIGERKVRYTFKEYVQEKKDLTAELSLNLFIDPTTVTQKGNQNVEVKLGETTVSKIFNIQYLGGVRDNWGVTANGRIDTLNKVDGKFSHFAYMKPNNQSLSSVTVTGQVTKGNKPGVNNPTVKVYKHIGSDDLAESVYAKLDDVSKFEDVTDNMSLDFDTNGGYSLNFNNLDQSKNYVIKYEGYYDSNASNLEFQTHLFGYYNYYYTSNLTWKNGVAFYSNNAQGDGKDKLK

Biological target: Recombinant fibronectin fragment, residues 1266–1908 (extra domain B plus type III modules 8–13 and the initial region of module 14) (UniProt P02751)
Assay: ELISA; Fn (1 µg/well) and Fn fragments (250 ng/well) coated; SpsD167–519 in solution, detected with anti-SpsD37–519 antibody; FnBPB163–480 as control, detected with anti-FnBPB163–480 IgG; both purified

Substance: FnBPB_(163–480) (from UniProt A0A0H2XKG3 163-480) (domain or fragment)
- binding: no binding
